Experimental data from paper PMC9932153.
Results are given in words; binding and its absence hold for the method and conditions named. Binding seen in cells or lysates may run through a third protein. Some entries that bind do so weakly or less than the wild type.

Amino acid sequences for entries named in this document (tags omitted).
UniProt Q9ULH1: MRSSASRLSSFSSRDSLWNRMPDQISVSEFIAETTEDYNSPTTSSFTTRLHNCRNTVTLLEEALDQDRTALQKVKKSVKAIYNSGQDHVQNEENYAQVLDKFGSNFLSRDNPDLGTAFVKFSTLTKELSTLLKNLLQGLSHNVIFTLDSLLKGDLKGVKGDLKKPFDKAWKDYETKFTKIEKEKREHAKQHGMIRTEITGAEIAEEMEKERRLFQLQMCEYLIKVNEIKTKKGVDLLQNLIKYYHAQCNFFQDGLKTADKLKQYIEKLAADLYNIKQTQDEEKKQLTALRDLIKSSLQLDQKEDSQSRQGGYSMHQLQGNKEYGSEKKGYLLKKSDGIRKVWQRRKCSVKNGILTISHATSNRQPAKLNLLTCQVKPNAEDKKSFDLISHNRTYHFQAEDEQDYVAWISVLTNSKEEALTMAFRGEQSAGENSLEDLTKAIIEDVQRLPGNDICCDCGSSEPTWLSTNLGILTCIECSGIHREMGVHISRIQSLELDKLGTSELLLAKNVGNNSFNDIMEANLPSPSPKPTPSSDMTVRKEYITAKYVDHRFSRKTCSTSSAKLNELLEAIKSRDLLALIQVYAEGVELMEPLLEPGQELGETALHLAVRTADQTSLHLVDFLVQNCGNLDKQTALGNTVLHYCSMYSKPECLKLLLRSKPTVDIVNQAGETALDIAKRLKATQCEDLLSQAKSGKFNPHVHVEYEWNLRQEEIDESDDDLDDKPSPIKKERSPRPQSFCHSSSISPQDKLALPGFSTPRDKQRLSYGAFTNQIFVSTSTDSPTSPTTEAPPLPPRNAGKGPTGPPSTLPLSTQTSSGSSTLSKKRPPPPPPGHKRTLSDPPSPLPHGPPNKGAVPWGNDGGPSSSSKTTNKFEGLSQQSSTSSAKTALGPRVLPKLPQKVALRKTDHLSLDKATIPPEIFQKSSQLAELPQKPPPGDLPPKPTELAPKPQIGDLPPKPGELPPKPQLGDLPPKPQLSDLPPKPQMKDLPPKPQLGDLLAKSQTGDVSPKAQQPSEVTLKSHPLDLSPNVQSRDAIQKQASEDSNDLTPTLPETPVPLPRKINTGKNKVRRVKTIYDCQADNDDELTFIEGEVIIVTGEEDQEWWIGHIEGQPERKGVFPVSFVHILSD
UniProt P46940: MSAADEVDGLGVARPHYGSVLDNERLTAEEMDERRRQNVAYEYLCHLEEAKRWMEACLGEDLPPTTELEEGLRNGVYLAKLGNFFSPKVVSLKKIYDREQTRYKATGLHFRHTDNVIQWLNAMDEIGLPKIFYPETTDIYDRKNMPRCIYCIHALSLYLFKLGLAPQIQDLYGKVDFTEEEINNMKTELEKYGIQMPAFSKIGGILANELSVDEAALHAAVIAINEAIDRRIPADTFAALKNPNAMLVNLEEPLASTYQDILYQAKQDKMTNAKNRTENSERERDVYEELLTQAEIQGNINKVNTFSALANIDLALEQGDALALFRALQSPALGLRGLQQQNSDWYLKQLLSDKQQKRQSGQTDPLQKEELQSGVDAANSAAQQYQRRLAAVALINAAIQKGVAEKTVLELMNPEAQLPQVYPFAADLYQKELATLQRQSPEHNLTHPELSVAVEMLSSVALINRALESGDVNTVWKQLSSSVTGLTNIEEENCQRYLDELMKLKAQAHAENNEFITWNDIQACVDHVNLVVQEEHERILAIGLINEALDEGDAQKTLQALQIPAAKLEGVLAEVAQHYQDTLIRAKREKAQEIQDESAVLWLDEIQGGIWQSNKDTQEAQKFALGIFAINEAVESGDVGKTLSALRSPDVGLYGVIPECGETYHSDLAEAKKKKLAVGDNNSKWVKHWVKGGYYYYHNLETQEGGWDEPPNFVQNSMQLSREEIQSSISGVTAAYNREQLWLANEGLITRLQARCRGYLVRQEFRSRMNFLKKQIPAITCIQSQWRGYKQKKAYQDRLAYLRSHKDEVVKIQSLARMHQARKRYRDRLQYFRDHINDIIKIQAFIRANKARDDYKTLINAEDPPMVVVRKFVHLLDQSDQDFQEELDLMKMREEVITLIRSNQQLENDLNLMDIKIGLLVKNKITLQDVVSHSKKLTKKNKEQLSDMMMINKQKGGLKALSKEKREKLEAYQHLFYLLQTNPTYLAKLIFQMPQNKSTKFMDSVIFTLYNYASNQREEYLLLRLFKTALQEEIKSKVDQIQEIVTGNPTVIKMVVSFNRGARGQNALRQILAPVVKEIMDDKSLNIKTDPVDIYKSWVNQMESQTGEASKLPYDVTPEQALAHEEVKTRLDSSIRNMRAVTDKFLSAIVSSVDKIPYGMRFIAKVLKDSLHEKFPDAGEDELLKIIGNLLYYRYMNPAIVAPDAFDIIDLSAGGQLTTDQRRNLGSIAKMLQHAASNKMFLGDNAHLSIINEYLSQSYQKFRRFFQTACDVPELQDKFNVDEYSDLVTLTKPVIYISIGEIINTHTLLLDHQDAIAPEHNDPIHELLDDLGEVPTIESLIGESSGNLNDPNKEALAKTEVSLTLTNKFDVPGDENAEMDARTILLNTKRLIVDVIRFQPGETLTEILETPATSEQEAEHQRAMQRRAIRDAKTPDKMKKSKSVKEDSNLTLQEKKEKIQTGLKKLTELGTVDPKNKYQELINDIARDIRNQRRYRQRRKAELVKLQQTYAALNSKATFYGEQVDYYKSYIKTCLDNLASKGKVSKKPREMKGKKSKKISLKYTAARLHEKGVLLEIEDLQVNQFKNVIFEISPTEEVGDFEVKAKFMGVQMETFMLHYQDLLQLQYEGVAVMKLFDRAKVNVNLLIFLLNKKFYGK

How the values were obtained:
HA-tagged ASAP1 = HA-tagged ASAP1 (UniProt Q9ULH1); test: co-IP; SGC-7901 cells transfected with pcDNA3.1-ASAP1-HA or pcDNA3.1; anti-HA antibody for IP; NP-40 lysis, beads washed with PBST; immunoblot
[1] = target: ASAP1 (Arf GTP-activating protein), endogenous (human (endogenous in SGC-7901)) (UniProt Q9ULH1); test: co-IP; endogenous proteins of SGC-7901 cells; anti-ASAP1 antibody for IP, normal mouse IgG as control; NP-40 lysis, beads washed with PBST; immunoblot

- binding (HA-tagged ASAP1): binds
- binding [1]: binds
Substance: IQGAP1 (Ras GTPase-activating-like protein), endogenous (from UniProt P46940 1-1657)
